Experimental data published in article PMC12376507.
These are yes or no findings as the source states them, for the method shown. Binding seen in cells or lysates may run through a third protein. Where a sequence is shown, tags or fusion partners need not be part of it.

Sequences of proteins named here, by UniProt entry; tags and fusion partners are left off.
UniProt P55884: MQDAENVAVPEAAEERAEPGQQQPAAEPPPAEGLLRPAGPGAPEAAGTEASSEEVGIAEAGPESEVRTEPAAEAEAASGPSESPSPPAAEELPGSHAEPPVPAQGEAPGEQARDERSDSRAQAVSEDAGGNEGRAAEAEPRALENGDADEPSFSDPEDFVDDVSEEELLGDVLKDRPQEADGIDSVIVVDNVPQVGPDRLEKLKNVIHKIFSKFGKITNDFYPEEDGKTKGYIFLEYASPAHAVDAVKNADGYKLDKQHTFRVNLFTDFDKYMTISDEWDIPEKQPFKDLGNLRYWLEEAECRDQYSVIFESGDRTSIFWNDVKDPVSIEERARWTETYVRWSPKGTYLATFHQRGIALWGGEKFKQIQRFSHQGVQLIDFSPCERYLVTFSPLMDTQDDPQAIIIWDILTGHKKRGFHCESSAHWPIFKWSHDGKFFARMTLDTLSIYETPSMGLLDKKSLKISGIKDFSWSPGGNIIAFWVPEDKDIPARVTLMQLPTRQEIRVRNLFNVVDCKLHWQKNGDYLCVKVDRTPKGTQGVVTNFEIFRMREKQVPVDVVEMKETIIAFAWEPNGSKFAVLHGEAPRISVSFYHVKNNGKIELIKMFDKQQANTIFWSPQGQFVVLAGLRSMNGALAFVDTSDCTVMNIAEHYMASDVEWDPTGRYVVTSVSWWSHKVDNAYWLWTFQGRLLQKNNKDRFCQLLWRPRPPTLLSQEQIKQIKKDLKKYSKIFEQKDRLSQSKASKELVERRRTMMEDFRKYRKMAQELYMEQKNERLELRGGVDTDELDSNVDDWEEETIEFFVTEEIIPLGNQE

Molecular target: T1, Flag-HPD (4-hydroxyphenylpyruvate dioxygenase with N-terminal Flag tag) (human) (UniProt P32754)
T1 sequence: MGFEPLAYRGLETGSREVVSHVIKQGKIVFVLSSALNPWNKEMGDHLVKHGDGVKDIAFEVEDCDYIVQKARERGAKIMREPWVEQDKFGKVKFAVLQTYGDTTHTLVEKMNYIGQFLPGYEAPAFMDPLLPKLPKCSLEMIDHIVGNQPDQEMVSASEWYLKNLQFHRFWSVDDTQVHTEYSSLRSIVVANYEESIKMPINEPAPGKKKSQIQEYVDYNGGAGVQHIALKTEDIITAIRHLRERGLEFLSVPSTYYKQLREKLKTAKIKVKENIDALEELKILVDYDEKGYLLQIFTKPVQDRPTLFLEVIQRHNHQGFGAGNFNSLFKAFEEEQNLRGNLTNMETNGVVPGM
Assay: co-IP; Flag-HPD immunoprecipitate tested for RPS10, EIF3A and EIF3B (Figure S3G,H); cell line and conditions not stated

EIF3B (from UniProt P55884 1-814)
binding: no binding
